# Out of some 320,000 compounds screened, about 22,000 (6.9%) were called active. The shares of active, inactive and inconclusive entries below differ from those in the screen. The call rests on the fitted dose curve; in most records, active means well fitted inhibition curve with a large enough effect; inconclusive means small, poorly fitted or top-dose-only effect, or another doubt; inactive means no such curve, though single readings can be large or run the other way. Where the call is inconclusive, the potency comes from a doubtful curve fit.
# Experiment: Primary qHTS for delayed death inhibitors of the malarial parasite plastid, 96 hour incubation
# Settings: P. falciparum luciferase reporter growth; series mostly up to 28.7 µM
# Summary of the method: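 P. falciparum expressing integrated firefly luciferase grown in erythrocytes (2% hematocrit, 0.05% parasitemia final) with compounds for 96 hours at 37 C, 5% CO2. Growth inhibition read as loss of luminescence after adding luciferase detection reagent.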
# Potency means the concentration at half of the fitted maximal effect.
row,Structure (SMILES),Potency
1,O=C(Nc1cccc(S(=O)(=O)NC2=NCCC2)c1)c1cc(=O)[nH]c2ccccc12,"inconclusive: 9.28 µM [inhibitor, partial curve, poor fit]"
2,N#CC1=C(N)Oc2cc(N)ccc2C1c1ccc(F)cc1F (centres undefined),active: 5.86 µM
3,CCCNC(=O)Cn1c(=O)/c(=C\c2ccc(-c3cccc([N+](=O)[O-])c3)o2)s/c1=C\C(=O)C(C)(C)C,active: 1.31 µM
4,CN(C(=O)COc1ncnc2sccc12)c1ccccc1,inactive
5,CCOC(=O)c1ccc(NC(=O)c2n[nH]c(=O)c3ccccc23)cc1,"inconclusive: 1.04 µM [inhibitor, partial curve, poor fit]"
6,Cc1ccccc1C(=O)Nc1ccccc1,"inconclusive: 18.5 µM [inhibitor, single point]"
7,CC1=C(C(=O)OC(C)C)C(c2ccsc2)NC(=O)N1C (centres undefined),"inconclusive: 18.5 µM [inhibitor, single point]"
8,CCOc1ccc(N=c2cc(-c3ccc(OC)cc3)oc3ccccc23)cc1,"inconclusive: 11.7 µM [inhibitor, single point]"
9,O=c1c2ccccc2nnn1COc1ccc(Cl)cc1Br,inactive
10,COc1ccc(C(=O)NC(=O)Nc2ncccc2C)cc1,inactive
11,CC(C)Cn1c(N)c(C(=O)COC(=O)/C=C/c2cccs2)c(=O)n(C)c1=O,"inconclusive: 9.28 µM [inhibitor, partial curve, poor fit]"
12,CN(C)c1ccc(NC(=O)CN2CCC(N3CCCCC3)CC2)cc1,inactive
13,N#CC(c1ccc(O)cc1)c1ncc(C(F)(F)F)cc1Cl (centres undefined),inactive
14,Cc1ccc(NC(=O)CNC(=O)c2ccccc2F)cc1Cl,inactive
15,c1ccc(-n2nnnc2-c2cnc(-c3cccnc3)nc2-c2cccs2)cc1,"inconclusive: 20.8 µM [inhibitor, partial curve, poor fit]"
16,COc1ccc(-c2cc(C(=O)NNC3=NCCC3)c3c(C)nn(-c4ccccc4)c3n2)cc1,"inconclusive: 1.47 µM [inhibitor, full curve]"
17,CCCOc1ccc(N2C(=O)CC(SC(=NCC)Nc3cccc(F)c3)C2=O)cc1 (centres undefined),"inconclusive: 2.94 µM [inhibitor, partial curve, poor fit]"
18,CS(=O)(=O)c1nc(-c2ccc(F)cc2)cc(C(F)(F)F)n1,inactive
19,O=C(CN(Cc1ccc(F)cc1)C(=O)CCC(=O)Nc1ccccn1)NCc1ccco1,"inconclusive: 18.5 µM [inhibitor, single point]"
20,COc1ccc(Nc2ncnc3scc(-c4ccc(OC)cc4)c23)cc1,active: 9.28 µM
21,Cc1cc(C(=O)OCC(=O)Nc2ccc(S(N)(=O)=O)cc2)c2ccccc2n1,inactive
22,Cc1cc(C)c2[nH]c(=O)c(CN(Cc3ccco3)C(=O)C3CCCO3)cc2c1 (centres undefined),inactive
23,O=C(NC(=S)Nc1ccc2c(c1)OCCO2)c1ccccc1F,"inconclusive: 1.47 µM [inhibitor, full curve]"

row,Structure (SMILES),Potency
1,CCN(C(=O)Cn1c(=O)oc2ccccc21)c1cccc(C)c1,"inconclusive: 1.04 µM [inhibitor, full curve]"
2,COc1ccccc1-c1ccc(=O)n(CC(=O)NC2CCc3ccccc32)n1 (centres undefined),"inconclusive: 18.5 µM [inhibitor, single point]"
3,COc1ccc(C(=O)NC2CCCCC2)cc1S(=O)(=O)N1CCOCC1,"inconclusive: 10.4 µM [inhibitor, single point]"
4,CCCCn1c(C)csc1=Nc1cccnc1,"inconclusive: 18.5 µM [inhibitor, single point]"
5,Clc1cncc(Cl)c1N/N=C/c1ccncc1,active: 1.17 µM
6,CCOC(=O)c1ccccc1NC(=O)CN1C(=O)CCS(=O)(=O)c2ccccc21,inactive
7,CC(=O)c1sc(-c2c(C)nc3sccn23)nc1C1CCCC1,"inconclusive: 10.4 µM [inhibitor, single point]"
8,COc1cc(-c2cc(C(=O)NCc3ccc(S(N)(=O)=O)cc3)c3ccccc3n2)cc(OC)c1OC,"inconclusive: 11.7 µM [inhibitor, single point]"
9,O=C(COC(=O)c1c[nH]c2ccccc12)Nc1cccc(F)c1,inactive
10,Cc1cccc(/C=N/NC(=O)c2cc(-c3cccnc3)nc3ccccc23)c1,"inconclusive: 13.1 µM [inhibitor, single point]"
11,COc1cccc(OC)c1OCC(O)CN1CCN(c2ccccc2F)CC1 (centres undefined),active: 4.65 µM
12,COc1cc(C(=O)OCC(=O)N(C)c2ccccc2)cc(OC)c1OC,inactive
13,O=C(NCCOc1ccc(Cl)cc1)C1CC(=O)N(c2ccc3c(c2)OCCO3)C1 (centres undefined),"inconclusive: 18.5 µM [inhibitor, single point]"
14,CCOC(=O)c1cccc(NC(=O)Cn2c(CC(=O)N3CCCC3)nc3ccccc32)c1,"inconclusive: 6.57 µM [inhibitor, partial curve, poor fit]"
15,O=C1OCC2=C1C(c1ccc(F)cc1)CC(=O)N2c1ccc(F)cc1 (centres undefined),"inconclusive: 18.5 µM [inhibitor, single point]"
16,O=C(CN1C(=O)C2C3CCC(C3)C2C1=O)NCc1ccco1 (centres undefined),inactive
17,O=C(NCCN1CCOCC1)c1ccccc1N1C(=O)[C@@H]2Cc3c([nH]c4ccccc34)C(c3ccc(F)cc3)N2C1=O (some centres undefined),"inconclusive: 16.5 µM [inhibitor, single point]"
18,COc1ccc(NC(=S)N(CCc2c(C)[nH]c3ccc(C)cc23)Cc2cccnc2)cc1,"inconclusive: 18.5 µM [inhibitor, single point]"
19,CCCn1c(=O)c2ccccc2n2c(SCC(=O)N3CCc4ccccc4C3)nnc12,"inconclusive: 18.5 µM [inhibitor, single point]"
20,CCc1nnc(NC(=O)C2CCCN(C(=O)c3ccc(Cl)cc3)C2)s1 (centres undefined),inactive
21,CC(C)CCNC(=O)c1cc(S(=O)(=O)N2CCCCC2)ccc1N1CCOCC1,"inconclusive: 18.5 µM [inhibitor, single point]"
22,COc1ccc(/C=C2\Sc3ccc(C(=O)NCCCN4CCCC4)cc3N(C)C2=O)cc1OC,"inconclusive: 18.5 µM [inhibitor, single point]"
23,CCOc1ccccc1C(=O)Nc1ccc2c(c1)C(=O)NC2=O,"inconclusive: 18.5 µM [inhibitor, single point]"

# Given as tab-separated lines: part of the list above.
row	Structure (SMILES)	Potency
11	COc1cccc(OC)c1OCC(O)CN1CCN(c2ccccc2F)CC1 (centres undefined)	active: 4.65 µM
12	COc1cc(C(=O)OCC(=O)N(C)c2ccccc2)cc(OC)c1OC	inactive
13	O=C(NCCOc1ccc(Cl)cc1)C1CC(=O)N(c2ccc3c(c2)OCCO3)C1 (centres undefined)	inconclusive: 18.5 µM [inhibitor, single point]

# Carrying on.

row,Structure (SMILES),Potency
1,CCOc1ccc2c(c1)c(C(C)=O)c(C)n2Cc1ccco1,inactive
2,COc1ccc(OCC(=O)NNC(=O)C2CCCO2)cc1 (centres undefined),"inconclusive: 4.15 µM [inhibitor, single point]"
3,Cc1ccc(S(=O)(=O)N2[C@@H](c3cccc(Cl)c3)C(C(=O)O)=CC[C@H]2c2ccc(Cl)c(Cl)c2)cc1,"inconclusive: 10.4 µM [inhibitor, single point]"
4,CCOc1ccc(-c2cc(C)[n+](CCc3ccc(OC)c(OC)c3)c(-c3ccc(OCC)cc3)c2)cc1,"inconclusive: 0.415 µM [inhibitor, full curve, poor fit]"
5,CCN(CC)S(=O)(=O)c1ccc(N2CCOCC2)c(NC(=O)c2ccc3ccccc3c2)c1,active: 11.7 µM
6,NC(=O)C1CCN(C(=O)CCc2nc3sc4c(c3c(=O)[nH]2)CCCC4)CC1,inactive
7,Cc1cc(C)c(C#N)c(SCc2cn3c(C)cccc3n2)n1,"inconclusive: 18.5 µM [inhibitor, single point]"
8,COc1ccc(CCNC(=O)COc2ccc(-c3ccc(C#N)cc3)cc2)cc1,"inconclusive: 18.5 µM [inhibitor, single point]"
9,Cc1ccc(NC(=O)NCc2ccccn2)cc1,"inconclusive: 8.28 µM [inhibitor, partial curve, poor fit]"
10,O=C(NC1=NCCS1)NC12CC3CC(CC(C3)C1)C2,active: 1.17 µM
11,COc1ccc(C(C(=O)NC2CCCC2)N(C(=O)c2snc(C(N)=O)c2N)c2cc(C)ccc2OC)cc1OC (centres undefined),"inconclusive: 11.7 µM [inhibitor, partial curve, poor fit]"
12,Cc1ccc(C(=O)COC(=O)CNC(=O)c2cccs2)cc1,inactive
13,Cc1sc2ncnc(NCC(c3ccccc3)N(C)C)c2c1C (centres undefined),"inconclusive: 0.928 µM [inhibitor, full curve, poor fit]"
14,O=C(Nc1ccc(N2CCOCC2)cc1)C1CC(=O)N(c2ccc(F)cc2)C1 (centres undefined),active: 10.4 µM
15,CC(C)c1nnc(NC(=O)CCC(=O)N2CCN(Cc3ccc(F)cc3)CC2)s1,"inconclusive: 11.7 µM [inhibitor, single point]"
16,COc1ccc(NS(=O)(=O)c2cc(NC(=O)c3sccc3C)ccc2N2CCOCC2)cc1,"inconclusive: 10.4 µM [inhibitor, single point]"
17,CCOC(=O)c1c(NC(=O)CSC(=S)N2CCOCC2)sc(C)c1C,"inconclusive: 4.15 µM [inhibitor, single point]"
18,Cc1ccc(C(=O)N/C(=C\c2cn(-c3ccccc3)nc2-c2ccccc2)C(=O)N2CCOCC2)cc1,"inconclusive: 11.7 µM [inhibitor, single point]"
19,COc1ccc(S(=O)(=O)N2CCCCC2)cc1NC(=O)CSc1nnc(C2CC2)n1C,"inconclusive: 18.5 µM [inhibitor, single point]"
20,COc1ccc(-n2c(Cc3cccn3C)nnc2SCC(=O)NCc2ccc(F)cc2)cc1,inactive
21,COC(=O)Cn1c(=NC(=O)CSCC(=O)NC2CCCCC2)sc2cc(OC)ccc21,"inconclusive: 5.86 µM [inhibitor, partial curve]"
22,CN(Cc1cnccn1)Cc1nc(Cc2ccccc2Cl)no1,inactive
23,CC(=O)Nc1ccc(NC(=O)c2cc(-c3ccc(C)c(C)c3O)n[nH]2)cc1,active: 2.33 µM

# A draw from above in order of formula weight, rising:
row,Structure (SMILES),Potency
12,Cc1ccc(C(=O)COC(=O)CNC(=O)c2cccs2)cc1,inactive
23,CC(=O)Nc1ccc(NC(=O)c2cc(-c3ccc(C)c(C)c3O)n[nH]2)cc1,active: 2.33 µM
20,COc1ccc(-n2c(Cc3cccn3C)nnc2SCC(=O)NCc2ccc(F)cc2)cc1,inactive
